Earlier results on 1 molecule are cited in patent US5110911A, “Human tumor-associated Thomsen-Friedenreich antigen” (Biomira, Inc., priority 1989, dated 1992).

The test system of this data set is β-D Gal (1→3 GalNAc structure in cancer tissues). Particulars: Yuan et al., cited from earlier work.

Like-named read-outs stand apart in the source and are kept apart here.

B1: PNA: lectin extracted from the peanut (Arachis hypogaea) which recognizes the terminal disaccharide of the TF-antigen (protein, UniProt P02872 24-273, looked up)
Galactose-binding lectin: AETVSFNFNSFSEGNPAINFQGDVTVLSNGNIQLTNLNKVNSVGRVLYAMPVRIWSSATGNVASFLTSFSFEMKDIKDYDPADGIIFFIAPEDTQIPAGSIGGGTLGVSDTKGAGHFVGVEFDTYSNSEYNDPPTDHVGIDVNSVDSVKTVPWNSVSGAVVKVTVIYDSSTKTLSVAVTNDNGDITTIAQVVDLKAKLPERVKFGFSASGSLGGRQIHLIRSWSFTSTLITTTRRSIDNNEKKIMNMASA
On to B1, for which the “sensitivity in cancer tissues” value is recorded as 91%. Further, the specificity (with autopsy controls) is reported as 68%. Further, the specificity (with nonneoplastic disease mucosa) is listed as 86%.
